# PubChem BioAssay AID1159584 – Peter MacCallum Cancer Centre – 2016
# Screen: 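Genes whose loss is lethal only together with E-cadherin loss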 (primary screen)
# Cells: human MCF10A breast epithelial cells, parental and CDH1-null
# Reagent: siRNA against human genes
# Measured: 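ATP luminescence (CellTiter-Glo) viability per line relative to mean mock wells over all plates, and the ratio of CDH1-null to parental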
# Scale: CDH1-null / parental viability ratio: higher = CDH1-null cells survive relatively better than parental; CDH1-null viability vs mock: higher = more viable CDH1-null cells; parental viability vs mock: higher = more viable parental cells
# This is an unselected part of about 18,000 reagents tested. The record does not give: the amount of reagent, the time to read-out.
Target gene,CDH1-null / parental viability ratio,CDH1-null viability vs mock (fraction of mock),parental viability vs mock (fraction of mock)
PNPLA3,1.02,0.62,0.61
RIPOR3 (RIPOR family member 3),0.86,0.8,0.93
WNT1 (Wnt family member 1),1.19,0.82,0.69
CDH15 (cadherin 15),1.13,0.81,0.72
ARHGEF2 (Rho/Rac guanine nucleotide exchange factor 2),0.93,0.8,0.86
FAM9B (family with sequence similarity 9 member B),1.06,1.1,1.04
NUF2 (NUF2 component of NDC80 kinetochore complex),1.48,0.46,0.31
SLC22A25,0.7,0.35,0.5
SLC30A2,1.28,0.73,0.57
RHOJ (ras homolog family member J),1.14,1.15,1.01
MYO1D (myosin ID),0.8,0.43,0.54
COX15 (cytochrome c oxidase assembly factor COX15),0.87,0.82,0.94
TPP1 (tripeptidyl peptidase 1),1.14,0.84,0.74
RPL15 (ribosomal protein L15),1.12,0.38,0.34
LRRC8C (leucine rich repeat containing 8 VRAC subunit C),0.71,0.55,0.77
FZD1 (frizzled class receptor 1),0.94,1.02,1.08
ARRDC4 (arrestin domain containing 4),1.37,1.04,0.76
AKR1C8 (aldo-keto reductase family 1 member C8),0.77,0.48,0.62
SERF2 (small EDRK-rich factor 2),0.93,0.52,0.56
RPF1 (ribosome production factor 1 homolog),0.86,0.57,0.66
MED15 (mediator complex subunit 15),0.94,0.72,0.77
PTPA (protein phosphatase 2 phosphatase activator),1.46,0.82,0.56
CERS5 (ceramide synthase 5),0.97,0.76,0.78
ZBTB24 (zinc finger and BTB domain containing 24),1.01,0.96,0.95
MMUT (methylmalonyl-CoA mutase),0.96,0.77,0.8
DDX20 (DEAD-box helicase 20),1.12,1.12,1
RBM39 (RNA binding motif protein 39),0.68,0.41,0.6
MAPK11 (mitogen-activated protein kinase 11),0.91,0.6,0.66
DOP1B (DOP1 leucine zipper like protein B),1.03,0.98,0.95
INSYN1 (inhibitory synaptic factor 1),1.29,0.8,0.62
PCARE (photoreceptor cilium actin regulator),0.91,0.2,0.22
COMMD6 (COMM domain containing 6),0.77,0.68,0.88
"POLG2 (DNA polymerase gamma 2, accessory subunit)",0.93,0.91,0.98
RACGAP1 (Rac GTPase activating protein 1),1.08,0.71,0.66
TEKT5 (tektin 5),0.8,0.7,0.88
RPP38 (ribonuclease P/MRP subunit p38),1.15,0.6,0.52
ANKRD50 (ankyrin repeat domain 50),0.83,0.53,0.64
ZNF680 (zinc finger protein 680),0.81,0.8,0.99
CERCAM (cerebral endothelial cell adhesion molecule),0.86,0.96,1.11
PTRH1 (peptidyl-tRNA hydrolase 1 homolog),0.93,0.82,0.88
SLCO1B1,1.07,0.62,0.58
PCED1A (PC-esterase domain containing 1A),1.05,0.61,0.58
KLHDC1 (kelch domain containing 1),1.42,1.02,0.72
LETM2,1.08,1.1,1.02
TG (thyroglobulin),1.08,1.09,1.01
ENPP5,0.95,0.74,0.78
KDELR1 (KDEL endoplasmic reticulum protein retention receptor 1),1.05,0.97,0.92
PAK6-AS1 (PAK6 antisense RNA 1),0.79,0.3,0.38
FETUB (fetuin B),1.17,0.91,0.78
RRAGB (Ras related GTP binding B),1.21,0.85,0.7
NAT10 (N-acetyltransferase 10),1.05,1.03,0.98
FAM204A (family with sequence similarity 204 member A),1.4,0.67,0.48
CEP19 (centrosomal protein 19),1.06,1,0.94
TGFB2 (transforming growth factor beta 2),1.11,1.04,0.94
MX1 (MX dynamin like GTPase 1),0.55,0.45,0.82
PPP1CB (protein phosphatase 1 catalytic subunit beta),1.14,0.81,0.71
C11orf24 (chromosome 11 open reading frame 24),1.14,0.96,0.84
GLTPD2 (glycolipid transfer protein domain containing 2),1.18,1.04,0.88
SACK1D (scaffolding CK1 anchoring protein D),0.94,0.81,0.86
OCIAD1 (OCIA domain containing 1),0.87,0.82,0.94
EIF3J (eukaryotic translation initiation factor 3 subunit J),1.19,0.74,0.62
TRIM56 (tripartite motif containing 56),0.73,0.67,0.92
SOHLH2,1.07,0.9,0.84
TUBB3 (tubulin beta 3 class III),1.17,0.75,0.64
"LMAN1 (lectin, mannose binding 1)",0.88,0.6,0.68
CACYBP (calcyclin binding protein),1.04,0.87,0.84
DUOXA1 (dual oxidase maturation factor 1),0.92,0.74,0.8
PIP5KL1 (phosphatidylinositol-4-phosphate 5-kinase like 1),0.99,0.79,0.8
